# Reference: patent US10201556B2, “Combination for use in treating diseases or conditions associated with melanoma, or treating diseases or conditions associated with activated B-raf pathway” (InteRNA Technologies B.V., priority 2012, dated 2019)
# Some results were stated once for a whole list of compounds, not compound by compound.
# System: RPMI-7951 cells
# Experiment: Cell viability (MTS) of miRNA mimic in combination with vemurafenib
# Type: cell-based
# Details: RPMI-7951, 10 nM miRNA mimic + 3 μM vemurafenib, normalized to siRNA scrambled (FIG. 15b)
row,Substance,better inhibition of cell viability in combination with vemurafenib
1,"hsa-miR-10b-3p: mature miRNA mimic, SEQ ID NO 2 ACAGAUUCGAUUCUAGGGGAAU (listed as RNA, chemistry not given here)",30-40%
2,"hsa-miR-16-5p: mature miRNA mimic, SEQ ID NO 7 UAGCAGCACGUAAAUAUUGGCG",30-40%
